We go through 39 sequences from PMC7862700.

The entries are a selection whose mix differs from that of the whole data set. At the low end of the ranking the order means little.

This assay has as its target SPI1 (UniProt P17947). As to the kind of experiment: DAPPL (digital affinity profiling via proximity ligation, sequencing). The settings on record: 10 mM Tris-HCl pH 7.5, 50 mM NaCl, 1 mM DTT, 4% glycerol, room temperature, 30 min; GST-TFs on glutathione beads, 16-mer random dsDNA library, 0.1% …; high values mean tight binding; double strand, one strand shown; scale: fold enrichment (6-mer frequency, TF over GST control).
The sequence ATGTGA gave a binding signal of 0.674.

Regarding CAGGCT, the binding signal was determined as 0.848. GCCGTG yielded a binding signal of 0.232. Take ACCGTG: the binding signal was 0.23. Regarding AGTAAG, the binding signal is 0.814. As to GCAGGA, the binding signal came to 0.751.

In the case of GGTAGA, the binding signal was 0.615. Sequence GCGGAC came in with a binding signal of 0.671. As for TCGGAC, the binding signal was found to be 0.372. GCAACG gave a binding signal of 0.881. For GCTGGA, the binding signal was 0.785. TGGGGC: the binding signal came out at 0.797. Consider CAGTCT, for which the binding signal amounted to 0.743. In the case of TCGTAG it was 0.802; in that of CAACAG, 0.863; in that of GAGCGC, 0.536.

ACGTGA gave a binding signal of 0.251. Turning to GCCGGG, the binding signal is 0.378. To CAGCGT belongs 0.82; to AGCGGA, 1.26. In the case of CCCAGT it was 0.674. Regarding CACGAG, the binding signal stood at 0.828.

Take AGTTGG: the binding signal amounted to 0.559.

The sequence TAGGGG displayed a binding signal of 0.849. For the sequence CCCGTG, the binding signal was determined as 0.527. The sequence GAAGGA came in with a binding signal of 0.747. In turn, AGACTG had a binding signal of 0.493. CGGGGT: the binding signal stood at 0.647.

In turn, AGCCGG yielded a binding signal of 0.576.

In turn, CAGTGA yielded a binding signal of 0.345. GCCGCG came in with a binding signal of 0.814.

Consider CAGACG, for which the binding signal was 0.478. In turn, GCGTAA gave a binding signal of 0.884. GAGATG had a binding signal of 0.625.

As to TATCGG, the binding signal amounted to 0.767. In the case of AGTGAG it was 0.337; in that of CCCGAG, 0.757; in that of GGGCAG, 0.539. For GACGTC, the binding signal stood at 0.757.
